About 7,500 (2.1%) of roughly 360,000 compounds were called active. Inconclusive results, whose numbers are uncertain, are shown with a selection of clear calls. The call rests on the fitted dose curve; in most records, active means well fitted inhibition curve with a large enough effect; inconclusive means small, poorly fitted or top-dose-only effect, or effect the other way; inactive means flat fitted curve, though single readings scatter. Where the call is inconclusive, the potency comes from a doubtful curve fit.
assay: Nrf2 qHTS screen for inhibitors; settings: A549 ARE-Fluc reporter, luciferase luminescence, 18-24 h; activity change, negative = inhibition: at 46 µM (top of the series); further: nearly all actives have a fitted effect of over 60% in size
In short: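 Nrf2 function is reported as luminescence of an ARE-controlled luciferase in A549 cells. Compounds were tested at several concentrations, and a CellTiter-Fluor read on the same wells flagged cytotoxicity.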
On the % scale 0 is the no-effect control and ±100 the full control effect; potency means the concentration at half of the fitted maximal effect.

| SMILES | Potency | activity change, negative = inhibition |
| --- | --- | --- |
| COc1ccc2nc(SCC(=O)C(C)(C)C)[nH]c2c1 | inconclusive: 4.11 µM [activator, single point] | – |
| COC(=O)c1ccc(CN2C(=O)NC3(CCC(C)CC3)C2=O)cc1 (configuration not stated) | inconclusive: 5.17 µM [activator, partial curve, poor fit] | – |
| C=CCN1C(=O)/C(=C/C(=O)OC)S/C1=N\NC(=O)c1ccccc1 | – | inactive: -4.59% |
| CSc1ccc(-c2cc(=O)c3ccccc3o2)cc1 | inconclusive: 11.6 µM [activator, partial curve] | – |
| Cc1ccc(N2CCN(S(=O)(=O)c3ccc(-n4cnnn4)cc3)CC2)c(C)c1 | inconclusive: 32.6 µM [activator, partial curve, poor fit] | – |
| O=c1[nH]c(=O)n([C@H]2C[C@H](O)[C@@H](CO)O2)cc1Br | inconclusive: 8.2 µM [falling, partial curve] | – |
| CC1CCN(S(=O)(=O)c2ccc(NC(=O)c3ccco3)cc2)CC1 | inconclusive: 29.1 µM [falling, single point] | – |
| CCOc1ccc(S(=O)(=O)n2ccc(C)n2)c2ccccc12 | active: 23.1 µM | – |
| Cc1nc(SCC(=O)Nc2nc3ccccc3s2)c(C#N)c(C)c1C | active: 4.61 µM | – |
| CC(=O)n1nc(-c2ccc(C)cc2)nc1NCc1ccco1 | inconclusive: 9.2 µM [activator, partial curve] | – |
| CN1CCCN(C2C3CC4CC(C3)CC2C4)CC1 (configuration not stated) | – | inactive: 26.4% |
| CC/C(=N\NC(=O)c1ccoc1C)c1ccc(C)o1 | inconclusive: 29.1 µM [activator, single point] | – |
| Cc1ccc(C(=O)N2CCCN(c3nc4cc5c(cc4cc3C#N)OCO5)CC2)cc1 | inconclusive: 23.1 µM [activator, single point] | – |
| COc1cc(OC)c(C2CC(=O)N3CN(C)CSC3=C2C#N)cc1OC (configuration not stated) | – | inactive: 1.73% |
| CCc1nnc(NC(=O)c2ccc(OCc3c(C)noc3C)c(OC)c2)s1 | active: 5.8 µM | – |
| COC1=C(N)C(=O)c2nc(-c3nc(C(=O)O)c(C)c(-c4ccc(OC)c(OC)c4O)c3N)ccc2C1=O | active: 0.0731 µM | – |
| C(=N\NCc1ccccc1)/c1ccc2ncccc2c1 | inconclusive: 0.164 µM [activator, full curve, poor fit] | – |
| COc1ccc(Br)c(C(=O)OCC(=O)NC(=O)NC2CCCC2)c1 | inconclusive: 0.146 µM [falling, partial curve, poor fit] | – |
| S=C1NC2(CCCCC2)N=C1c1ccccc1 | inconclusive: 6.51 µM [activator, single point] | – |
| Cc1csc(NC(=O)c2cncc(Br)c2)n1 | inconclusive: 1.84 µM [activator, partial curve] | – |
| CC(=O)c1c(C)[nH]c(C(=O)CN2C(=O)NC(CCc3ccccc3)C2=O)c1C (configuration not stated) | inconclusive: 23.1 µM [falling, partial curve, poor fit] | – |
| CN(C)c1ccc(/C=N/Nc2cccc(C(=O)O)c2)cc1 | inconclusive: 0.58 µM [activator, full curve, poor fit] | – |
| CC(=O)c1cccc(CN2CCN(CCC(C)C)C(CCO)C2)c1 (configuration not stated) | inconclusive: 5.17 µM [falling, full curve] | – |

Structural class, the entries above with a furan ring, fused or not (3)

| SMILES | Potency | activity change, negative = inhibition |
| --- | --- | --- |
| CC1CCN(S(=O)(=O)c2ccc(NC(=O)c3ccco3)cc2)CC1 | inconclusive: 29.1 µM [falling, single point] | – |
| CC(=O)n1nc(-c2ccc(C)cc2)nc1NCc1ccco1 | inconclusive: 9.2 µM [activator, partial curve] | – |
| CC/C(=N\NC(=O)c1ccoc1C)c1ccc(C)o1 | inconclusive: 29.1 µM [activator, single point] | – |

(further entries)

| SMILES | Potency | activity change, negative = inhibition |
| --- | --- | --- |
| O=C(Nc1nc2c(F)c(F)c(F)cc2s1)c1ccco1 | inconclusive: 7.31 µM [activator, partial curve] | – |
| Cc1ccc(F)cc1NC(=O)N1CCCN(c2ccc(C(F)(F)F)cn2)CC1 | inconclusive: 16.4 µM [falling, partial curve, poor fit] | – |
| CCNS(=O)(=O)c1ccc(NC(=O)Cn2cc([N+](=O)[O-])cn2)cc1 | inconclusive: 10.3 µM [falling, partial curve, poor fit] | – |
| COc1ccc2occ(C(=O)c3ccc(N)cc3)c2c1 | inconclusive: 0.731 µM [activator, full curve] | – |
| CC(C)Oc1ccc(/C=N/NC(=O)c2nnn(-c3nonc3N)c2CN(C)c2ccccc2)cc1 | inconclusive: 20.6 µM [falling, partial curve] | – |
| CCSc1ccc2nnc(-c3cccs3)n2n1 | inconclusive: 4.11 µM [falling, partial curve] | – |
| CCCCNC(=S)NNC(=O)c1csc2ccccc12 | inconclusive: 29.1 µM [falling, single point] | – |
| CCN(CC)C(=O)c1[nH]cnc1C(=O)N[C@@H](CCCCNC(=O)OC(C)(C)C)C(=O)OC(C)(C)C | – | inactive: -26.2% |
| CN(C(=O)c1cccc(NC(=O)c2ccco2)c1)c1ccccc1 | – | inactive: -9.64% |
| O=C(Nc1ccccc1N1CCCCC1)c1cccs1 | inconclusive: 29.1 µM [falling, single point] | – |
| O=C(NC(=S)Nc1ccc(Cc2ccncc2)cc1)c1ccccc1F | inconclusive: 29.1 µM [falling, single point] | – |
| O=C(CC1Sc2ccccc2NC1=O)OCc1cc(=O)oc2cc(O)ccc12 (configuration not stated) | inconclusive: 8.2 µM [activator, partial curve] | – |
| Cc1ccc(Nc2nc3ccccc3c(=O)s2)cc1C | inconclusive: 5.17 µM [falling, full curve, poor fit] | – |
| CCOc1cccc(C(=O)NC(=S)Nc2cccnc2)c1 | inconclusive: 29.1 µM [activator, single point] | – |
| Cc1ccc(Cn2ccc(NC(=O)c3cc(-c4ccc(Br)cc4)on3)n2)cc1 | inconclusive: 6.51 µM [falling, single point] | – |
| Cc1ccc(-n2nnc(-c3cccnc3Cl)n2)cc1 | inconclusive: 29.1 µM [activator, single point] | – |
| Cn1c(=O)n(C)c2cc(S(=O)(=O)NCc3ccccc3)ccc21 | inconclusive: 18.4 µM [falling, single point] | – |
| Cc1cccc(NC(=O)c2cccc(S(=O)(=O)N3CCCCC3)c2)c1 | inconclusive: 29.1 µM [falling, single point] | – |
| CCOC(=O)[C@H]1[C@H]2COc3ccc(Cl)cc3[C@@H]2N2C(=O)CN(Cc3ccc(C)cc3)C(=O)[C@@]12C | inconclusive: 25.9 µM [falling, partial curve, poor fit] | – |
| CCCCc1nc2cc(C(=O)NCc3ccccn3)ccc2o1 | inconclusive: 13 µM [falling, partial curve, poor fit] | – |
| Cc1c(Cl)c([N+](=O)[O-])nn1CCCC(=O)Nc1c(Cl)cccc1Cl | – | inactive: -4.94% |
| Cc1c(/C=C/C(=O)c2ccc(C(C)C)cc2)cnn1C | inconclusive: 0.82 µM [falling, full curve, poor fit] | – |
| CCOC(=O)C1CCN(CCC(=O)Nc2cccc(Cl)c2)CC1 | inconclusive: 18.4 µM [activator, partial curve, poor fit] | – |

Random excerpt: two records from the list.

| SMILES | Potency | activity change, negative = inhibition |
| --- | --- | --- |
| Cc1ccc(Nc2nc3ccccc3c(=O)s2)cc1C | inconclusive: 5.17 µM [falling, full curve, poor fit] | – |
| O=C(Nc1nc2c(F)c(F)c(F)cc2s1)c1ccco1 | inconclusive: 7.31 µM [activator, partial curve] | – |

Further records.

| SMILES | Potency | activity change, negative = inhibition |
| --- | --- | --- |
| Cc1cc(C)cc(NC(=O)COCc2cc(-c3ccc4c(c3)OCO4)on2)c1 | inconclusive: 18.4 µM [activator, partial curve, poor fit] | – |
| CCOC(=O)c1cc(NC(=O)Cc2ccc(S(=O)(=O)N3CCOCC3)s2)cc(C(=O)OCC)c1 | inconclusive: 16.4 µM [falling, single point] | – |
| COc1cccc(-c2nc(CS(=O)(=O)CC(=O)NCCc3ccc(Cl)cc3)c(C)o2)c1 | inconclusive: 32.6 µM [falling, single point] | – |
| CC1CCCCN1C(=O)CSc1c2c(nc3cc(Cl)ccc13)CCCC2 (configuration not stated) | – | inactive: 7.91% |
| N/C(=N\OC(=O)c1ccccc1F)c1cccc([N+](=O)[O-])c1 | inconclusive: 5.17 µM [activator, partial curve, poor fit] | – |
| CCOC(=O)c1nnn(-c2ccccc2)c1C | inconclusive: 29.1 µM [activator, single point] | – |
| COc1cccc(CN2c3ccc(Br)cc3C(=O)CS2(=O)=O)c1 | – | inactive: 9.27% |
| Cc1cc(=O)oc2c3c(cc(OCC(=O)N[C@@H](CC(C)C)C(=O)O)c12)OC(C)(C)CC3 | inconclusive: 6.51 µM [activator, partial curve, poor fit] | – |
| CCOCCn1c(=O)c2c(nc3n2CCN3c2ccc(C)c(C)c2)n(C)c1=O | inconclusive: 32.6 µM [falling, single point] | – |
| CCN1CCN(c2nc(Nc3cccc(C)c3)nc(N)c2[N+](=O)[O-])CC1 | – | inactive: 3.84% |
| COc1ccc(C2SCC(=O)N2c2ccc(OC)cc2)cc1 (configuration not stated) | inconclusive: 14.6 µM [falling, partial curve, poor fit] | – |
| CS(=O)(=O)N(CC(=O)N1CCCCCC1)c1cccc(Br)c1 | – | inactive: 1.71% |
| COCCN(C(=O)COC(=O)CCOc1cc(C)ccc1C)c1c(N)n(Cc2ccccc2)c(=O)[nH]c1=O | inconclusive: 18.4 µM [falling, single point] | – |
| C=CCn1c(=NC(=O)c2ccco2)sc2cc(C(=O)OCC)ccc21 | – | inactive: 0.438% |
| COc1ccc(OC)c(NC(=O)Cn2cnc3onc(-c4ccc(Cl)cc4)c3c2=O)c1 | – | inactive: 0.653% [at 9.27 µM] |
| N#CCCn1cc(C(=O)CN2C(=O)NC3(CCCCCC3)C2=O)c2ccccc21 | inconclusive: 32.6 µM [falling, single point] | – |
| COc1ccc2c(c1)sc1nc(-c3ccccc3)cn12 | active: 18.4 µM | – |
| c1cncc(-c2nc(NCc3ccc4c(c3)OCO4)c3ccccc3n2)c1 | – | inactive: -17.3% |
| O=C(Nc1ccc([N+](=O)[O-])cc1)C1CC1(c1ccccc1)c1ccccc1 (configuration not stated) | inconclusive: 29.1 µM [falling, single point] | – |
| O=C(Nc1ccccc1)c1ccc(Nc2c([N+](=O)[O-])cc([N+](=O)[O-])c3ccccc23)cc1 | active: 7.31 µM | – |
| Cc1cc(NC(=O)Nc2nnc(N3CCCCC3)s2)ccc1Br | inconclusive: 9.2 µM [activator, partial curve] | – |
